In the supplement of paper PMC10849652:
The other results are listed elsewhere or left out.

By UniProt entry, the sequences of proteins in these tests, tags left out. Where a name states a change or a piece, a line headed by the entry shows the natural chain unless it says otherwise.
UniProt Q86YQ8: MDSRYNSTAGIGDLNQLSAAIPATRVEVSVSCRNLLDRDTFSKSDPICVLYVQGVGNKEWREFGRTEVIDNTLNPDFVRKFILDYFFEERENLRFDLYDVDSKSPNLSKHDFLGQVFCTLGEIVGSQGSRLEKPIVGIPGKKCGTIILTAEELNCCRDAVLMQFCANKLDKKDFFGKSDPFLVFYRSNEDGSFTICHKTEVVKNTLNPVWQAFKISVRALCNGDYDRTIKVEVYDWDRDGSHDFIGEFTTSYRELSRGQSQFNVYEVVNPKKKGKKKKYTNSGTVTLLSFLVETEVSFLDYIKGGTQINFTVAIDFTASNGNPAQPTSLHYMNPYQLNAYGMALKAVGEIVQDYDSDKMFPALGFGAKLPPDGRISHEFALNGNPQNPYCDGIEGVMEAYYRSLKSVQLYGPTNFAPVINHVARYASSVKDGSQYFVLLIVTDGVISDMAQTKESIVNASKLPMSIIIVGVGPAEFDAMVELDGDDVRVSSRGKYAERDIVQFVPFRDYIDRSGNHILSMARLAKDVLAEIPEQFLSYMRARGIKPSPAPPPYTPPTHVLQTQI
UniProt Q9UNS2: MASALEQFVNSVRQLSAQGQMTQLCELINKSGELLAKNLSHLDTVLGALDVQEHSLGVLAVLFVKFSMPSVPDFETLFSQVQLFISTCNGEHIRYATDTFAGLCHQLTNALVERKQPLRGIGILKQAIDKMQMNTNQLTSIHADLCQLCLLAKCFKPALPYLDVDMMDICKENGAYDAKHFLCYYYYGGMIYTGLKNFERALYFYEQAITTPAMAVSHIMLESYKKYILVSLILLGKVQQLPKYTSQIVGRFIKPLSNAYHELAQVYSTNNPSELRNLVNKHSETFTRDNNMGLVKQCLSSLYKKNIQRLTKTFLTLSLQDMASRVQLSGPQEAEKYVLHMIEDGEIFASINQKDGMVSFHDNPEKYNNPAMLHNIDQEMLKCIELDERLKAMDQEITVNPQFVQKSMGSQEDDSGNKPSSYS
UniProt Q9BXS0: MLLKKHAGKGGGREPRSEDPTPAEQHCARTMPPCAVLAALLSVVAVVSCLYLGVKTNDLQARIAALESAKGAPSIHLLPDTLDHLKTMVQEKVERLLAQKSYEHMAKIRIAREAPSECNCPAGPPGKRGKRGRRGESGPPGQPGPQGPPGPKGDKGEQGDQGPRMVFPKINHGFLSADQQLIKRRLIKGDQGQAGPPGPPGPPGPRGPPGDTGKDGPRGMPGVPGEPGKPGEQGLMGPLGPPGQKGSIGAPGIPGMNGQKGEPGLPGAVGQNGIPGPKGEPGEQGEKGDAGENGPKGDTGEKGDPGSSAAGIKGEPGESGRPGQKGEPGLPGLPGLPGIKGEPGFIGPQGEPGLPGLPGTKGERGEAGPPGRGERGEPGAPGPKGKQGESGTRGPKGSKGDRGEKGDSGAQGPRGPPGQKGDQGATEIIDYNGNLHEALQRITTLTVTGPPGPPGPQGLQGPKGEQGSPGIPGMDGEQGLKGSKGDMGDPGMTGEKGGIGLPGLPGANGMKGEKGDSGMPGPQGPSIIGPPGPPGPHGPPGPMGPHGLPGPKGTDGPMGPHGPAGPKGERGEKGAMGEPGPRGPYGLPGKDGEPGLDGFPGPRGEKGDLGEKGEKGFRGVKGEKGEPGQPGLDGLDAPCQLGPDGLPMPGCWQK
UniProt Q96F85: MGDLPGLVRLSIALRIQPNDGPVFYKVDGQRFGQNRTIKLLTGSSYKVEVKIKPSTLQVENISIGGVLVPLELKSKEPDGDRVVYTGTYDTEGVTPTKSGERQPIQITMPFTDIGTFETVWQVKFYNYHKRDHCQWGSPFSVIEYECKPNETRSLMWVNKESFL
UniProt P24311, whole entry, looked up: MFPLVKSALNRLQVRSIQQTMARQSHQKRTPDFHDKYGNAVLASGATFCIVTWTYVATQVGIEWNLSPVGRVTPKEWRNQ
UniProt Q8N137: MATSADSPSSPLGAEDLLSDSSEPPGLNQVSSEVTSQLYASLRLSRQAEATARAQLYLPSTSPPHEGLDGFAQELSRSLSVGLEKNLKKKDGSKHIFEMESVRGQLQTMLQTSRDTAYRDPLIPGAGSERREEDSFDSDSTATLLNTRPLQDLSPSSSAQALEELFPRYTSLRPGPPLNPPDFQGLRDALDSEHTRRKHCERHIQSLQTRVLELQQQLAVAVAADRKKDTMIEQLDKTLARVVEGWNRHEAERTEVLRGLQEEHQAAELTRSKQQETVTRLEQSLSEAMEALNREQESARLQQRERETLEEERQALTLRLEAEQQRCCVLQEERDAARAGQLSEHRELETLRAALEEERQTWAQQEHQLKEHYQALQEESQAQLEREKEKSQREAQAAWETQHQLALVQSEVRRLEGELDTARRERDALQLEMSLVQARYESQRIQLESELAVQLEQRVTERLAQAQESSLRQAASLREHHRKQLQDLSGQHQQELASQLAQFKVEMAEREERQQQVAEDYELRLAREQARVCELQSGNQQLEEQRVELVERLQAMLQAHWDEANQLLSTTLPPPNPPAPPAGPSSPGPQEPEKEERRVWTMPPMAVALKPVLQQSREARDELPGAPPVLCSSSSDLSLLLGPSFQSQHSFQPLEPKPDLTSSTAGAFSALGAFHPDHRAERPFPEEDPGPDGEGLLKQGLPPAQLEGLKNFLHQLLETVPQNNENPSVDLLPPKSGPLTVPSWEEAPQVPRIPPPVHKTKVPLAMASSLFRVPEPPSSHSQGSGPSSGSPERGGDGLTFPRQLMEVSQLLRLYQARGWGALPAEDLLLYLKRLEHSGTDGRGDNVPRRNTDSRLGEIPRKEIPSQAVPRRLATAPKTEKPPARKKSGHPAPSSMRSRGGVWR
UniProt Q9UI42: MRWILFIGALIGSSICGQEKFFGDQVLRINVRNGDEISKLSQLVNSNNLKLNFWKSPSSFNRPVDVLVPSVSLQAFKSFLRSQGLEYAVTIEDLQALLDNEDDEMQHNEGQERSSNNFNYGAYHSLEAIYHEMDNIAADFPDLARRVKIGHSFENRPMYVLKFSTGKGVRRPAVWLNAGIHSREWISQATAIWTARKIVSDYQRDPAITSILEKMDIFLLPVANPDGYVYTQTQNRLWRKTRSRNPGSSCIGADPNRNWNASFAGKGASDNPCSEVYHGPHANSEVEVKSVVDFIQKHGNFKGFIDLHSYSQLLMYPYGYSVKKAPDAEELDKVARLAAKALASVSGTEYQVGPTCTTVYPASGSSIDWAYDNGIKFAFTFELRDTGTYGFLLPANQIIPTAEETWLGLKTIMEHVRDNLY
UniProt Q7Z4G1, whole entry, looked up: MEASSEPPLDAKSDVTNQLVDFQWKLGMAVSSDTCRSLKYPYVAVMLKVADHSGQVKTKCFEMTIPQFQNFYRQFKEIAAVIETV
UniProt G9CGD6: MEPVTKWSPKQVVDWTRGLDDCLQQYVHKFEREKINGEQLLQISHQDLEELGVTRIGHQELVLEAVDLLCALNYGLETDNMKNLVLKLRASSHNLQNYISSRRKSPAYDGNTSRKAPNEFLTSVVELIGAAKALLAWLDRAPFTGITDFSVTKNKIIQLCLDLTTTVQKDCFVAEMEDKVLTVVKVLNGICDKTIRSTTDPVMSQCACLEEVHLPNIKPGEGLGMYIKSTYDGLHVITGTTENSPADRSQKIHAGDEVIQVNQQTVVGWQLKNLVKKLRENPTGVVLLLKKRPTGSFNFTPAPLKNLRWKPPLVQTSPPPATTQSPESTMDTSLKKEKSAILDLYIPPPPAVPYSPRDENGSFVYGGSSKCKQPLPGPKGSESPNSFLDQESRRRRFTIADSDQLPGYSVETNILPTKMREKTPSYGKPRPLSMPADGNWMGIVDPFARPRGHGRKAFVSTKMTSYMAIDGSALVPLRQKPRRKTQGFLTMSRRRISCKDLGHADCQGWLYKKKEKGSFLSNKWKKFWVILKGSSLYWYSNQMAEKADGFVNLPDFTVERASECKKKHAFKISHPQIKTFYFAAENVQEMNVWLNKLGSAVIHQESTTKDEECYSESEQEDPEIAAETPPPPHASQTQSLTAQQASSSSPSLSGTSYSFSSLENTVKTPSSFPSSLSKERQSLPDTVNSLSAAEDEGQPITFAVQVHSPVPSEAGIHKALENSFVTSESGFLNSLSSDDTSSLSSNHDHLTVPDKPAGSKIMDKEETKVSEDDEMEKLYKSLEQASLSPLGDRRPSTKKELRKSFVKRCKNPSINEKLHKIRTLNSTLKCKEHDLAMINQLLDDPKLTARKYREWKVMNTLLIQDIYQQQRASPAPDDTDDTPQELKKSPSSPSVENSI
UniProt Q6QEF8, whole entry, looked up: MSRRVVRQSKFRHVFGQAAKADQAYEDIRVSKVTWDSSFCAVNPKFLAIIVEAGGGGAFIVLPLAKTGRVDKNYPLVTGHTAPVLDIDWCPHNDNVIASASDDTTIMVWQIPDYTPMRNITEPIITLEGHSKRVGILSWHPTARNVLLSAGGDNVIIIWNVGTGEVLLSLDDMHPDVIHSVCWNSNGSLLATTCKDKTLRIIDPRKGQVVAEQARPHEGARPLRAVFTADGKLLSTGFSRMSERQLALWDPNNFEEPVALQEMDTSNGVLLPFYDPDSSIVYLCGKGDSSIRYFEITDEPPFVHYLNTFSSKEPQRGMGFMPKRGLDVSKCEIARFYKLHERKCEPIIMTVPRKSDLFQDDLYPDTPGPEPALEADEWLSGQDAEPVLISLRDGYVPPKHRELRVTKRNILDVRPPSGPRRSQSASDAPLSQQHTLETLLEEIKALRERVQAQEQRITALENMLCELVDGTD
UniProt P61201: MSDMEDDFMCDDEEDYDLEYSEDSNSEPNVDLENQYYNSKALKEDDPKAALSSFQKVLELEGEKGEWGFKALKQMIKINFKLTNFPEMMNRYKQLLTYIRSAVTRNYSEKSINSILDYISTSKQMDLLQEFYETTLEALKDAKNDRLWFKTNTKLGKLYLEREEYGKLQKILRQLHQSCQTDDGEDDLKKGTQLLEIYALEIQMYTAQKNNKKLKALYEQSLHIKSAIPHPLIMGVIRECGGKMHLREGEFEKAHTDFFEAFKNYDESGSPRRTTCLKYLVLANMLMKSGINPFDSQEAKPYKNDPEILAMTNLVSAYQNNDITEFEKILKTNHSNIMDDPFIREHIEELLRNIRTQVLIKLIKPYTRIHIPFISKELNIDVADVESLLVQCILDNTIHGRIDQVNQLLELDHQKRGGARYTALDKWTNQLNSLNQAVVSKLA
UniProt Q96FN4: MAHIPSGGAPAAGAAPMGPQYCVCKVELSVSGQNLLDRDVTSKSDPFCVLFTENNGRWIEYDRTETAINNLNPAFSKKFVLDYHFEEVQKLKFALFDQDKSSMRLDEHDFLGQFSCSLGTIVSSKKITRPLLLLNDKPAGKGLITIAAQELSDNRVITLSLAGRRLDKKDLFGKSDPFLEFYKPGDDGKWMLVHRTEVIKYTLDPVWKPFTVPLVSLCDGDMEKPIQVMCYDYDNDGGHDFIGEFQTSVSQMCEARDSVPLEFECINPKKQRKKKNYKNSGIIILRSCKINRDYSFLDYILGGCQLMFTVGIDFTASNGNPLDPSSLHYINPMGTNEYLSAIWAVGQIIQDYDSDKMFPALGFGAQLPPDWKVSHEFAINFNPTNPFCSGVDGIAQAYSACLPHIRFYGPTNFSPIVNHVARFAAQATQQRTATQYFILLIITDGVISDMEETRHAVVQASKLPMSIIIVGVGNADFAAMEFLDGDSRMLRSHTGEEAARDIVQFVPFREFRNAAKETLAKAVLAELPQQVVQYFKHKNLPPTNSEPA
UniProt Q9H8M5: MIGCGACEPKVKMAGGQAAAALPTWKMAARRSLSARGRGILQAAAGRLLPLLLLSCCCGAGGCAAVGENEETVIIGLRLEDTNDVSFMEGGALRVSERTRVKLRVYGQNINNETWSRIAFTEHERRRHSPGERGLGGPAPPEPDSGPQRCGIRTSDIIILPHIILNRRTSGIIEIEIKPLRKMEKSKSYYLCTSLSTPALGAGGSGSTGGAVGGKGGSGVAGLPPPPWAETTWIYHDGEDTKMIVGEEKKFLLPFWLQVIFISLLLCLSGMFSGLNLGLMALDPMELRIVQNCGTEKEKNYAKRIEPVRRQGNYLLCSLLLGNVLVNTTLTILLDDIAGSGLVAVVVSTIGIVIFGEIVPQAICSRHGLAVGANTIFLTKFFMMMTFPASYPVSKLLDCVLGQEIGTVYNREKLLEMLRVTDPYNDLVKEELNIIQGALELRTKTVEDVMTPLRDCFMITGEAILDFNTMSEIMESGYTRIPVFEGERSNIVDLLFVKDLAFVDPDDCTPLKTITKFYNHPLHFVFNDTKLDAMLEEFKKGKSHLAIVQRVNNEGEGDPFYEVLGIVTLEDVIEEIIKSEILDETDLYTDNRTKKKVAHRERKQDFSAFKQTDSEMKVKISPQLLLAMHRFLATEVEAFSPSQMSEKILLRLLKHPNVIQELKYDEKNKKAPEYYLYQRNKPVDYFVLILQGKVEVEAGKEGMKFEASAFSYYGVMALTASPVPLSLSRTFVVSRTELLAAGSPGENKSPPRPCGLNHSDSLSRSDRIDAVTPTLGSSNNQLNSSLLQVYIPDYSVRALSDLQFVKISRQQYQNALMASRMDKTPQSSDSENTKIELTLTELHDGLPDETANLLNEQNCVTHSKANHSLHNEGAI

Assays:
Assay in all cases: log2 fold change, soluble protein after heating vs DMSO (PISA); higher = thermal stabilisation; K562 lysate, 10 uM; active = over 0.2 and 3.5 SD of the protein, either way, in both replicates (recomputed)
[1] = compound: C#Cc1cccc(Nc2ncnc3cc(OCCOC)c(OCCOC)cc23)c1 [erlotinib]
How it was run: (§1)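 A 30 min treatment with 10 μM compound was applied to crude K562 extract at 1 mg/mL protein in PBS pH 7.4 with 1 mM MgCl2. Heating for 3 min spanned 48°C-58°C, after which aliquots were pooled, adjusted to 0.5% NP-40 at 4°C and spun at 21,000xg for 90 min. TMTpro 16plex LC-MS/MS of the supernatant, with channel sums equalised, gave values recorded as log-two fold change in thermal stability against solvent controls, from duplicates.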

[2] = compound: C/C(=N\NC(=O)C1=CC(=CC=C1)S(=O)(=O)N2CCOCC2)/C3=C(C=CC(=C3)Cl)O
How it was run: as §1

[3] = compound: C1=CC(=CC=C1C2=NC3=C(N2)C=C(C=C3)C(=O)N)OC4=CC=C(C=C4)Cl
How it was run: as §1

[4] = compound: C1=CC2=C(C=CC(=C2)/C=C\3/C(=O)NC(=NCC4=CC=CS4)S3)N=C1
How it was run: as §1

[5] = compound: C1=CC2=NC=CN=C2C=C1/C=C/3\C(=O)NC(=O)S3
How it was run: as §1

[6] = compound: C1=CC=C(C=C1)C2=NC(=C(N2)C3=CC=NC=C3)C4=CC(=C(C=C4)Cl)O
How it was run: as §1

[7] = compound: C1=CC=C2C(=C1)C3=NNC4=CC=CC(=C43)C2=O
How it was run: as §1

[8] = compound: C1COCCN1CCN2C3=CC=CC=C3N=C2NC(=O)C4=CC(=CC=C4)[N+](=O)[O-] [IRAK-1-4 Inhibitor I]
How it was run: as §1

[9] = compound: C=CC(=O)N1CCC[C@@H](n2nc(-c3ccc(Oc4ccccc4)cc3)c3c(N)ncnc32)C1 [ibrutinib]
How it was run: as §1

[10] = compound: CC(=O)c1cnc2ccc(-c3cc(Cl)c(O)c(Cl)c3)nc2c1N[C@H]1CC[C@H](CN(C)C)CC1
How it was run: as §1

[11] = compound: CC(C)(C)Cn1c(N)nc2ccc(-c3[nH]c(C(C)(C)C)nc3-c3ccc(F)cc3)nc21 [ralimetinib]
How it was run: as §1

[12] = compound: CC(C)(O)CC(=O)NCCn1ccc2ncnc(Nc3ccc(Oc4cccc(C(F)(F)F)c4)c(Cl)c3)c21
How it was run: as §1

[13] = compound: CC(C)C1=C2N=C(C=C(N2N=C1)NCC3=CC=CC=C3)NCCCCCCN
How it was run: as §1

[14] = compound: CC1=C(C(CC(=O)N1)C2=CC=C(C=C2)C(F)(F)F)C(=O)NC3=C(C=C4C(=C3)C=NN4)F
How it was run: as §1

[15] = compound: CC1=C(C2=C(C=C1)C(=O)C3=CC=CC=C3N2CCCN)C
How it was run: as §1

[16] = compound: CC1=C(C=C(C=C1)NC(=O)C2=CC(=CC=C2)C(C)(C)C#N)NC3=CC4=C(C=C3)N=CN(C4=O)C
How it was run: as §1

[17] = compound: CC1=C(C=C(C=C1)NC(=O)C2=CC(=CC=C2)N(C)C)NC(=O)C3=CC=C(C=C3)O
How it was run: as §1

[18] = compound: CC1=CC=C(C=C1)SC2=C3C=C(SC3=CN=C2)C(=O)N
How it was run: as §1

[19] = compound: C1CCN(C1)C(=O)NC2=CC=CC(=C2)NC3=NC=C(C(=N3)NCCC4=CN=CN4)Br
How it was run: as §1

[20] = compound: C1CN(CCC1(CC2=CC=C(C=C2)Cl)N)C3=NC=NC4=C3C=CN4
How it was run: as §1

Measured: log2 fold change

CPNE8 (UniProt Q86YQ8)
inactive: [1] -0.14 | [2] 0.249 | [3] 0.004 | [4] 0.011 | [5] 0.112 | [6] 0.057 | [7] -0.118 | [8] 0.062 | [9] 0.168 | [10] 0.196 | [11] -0.087 | [12] 0.04 | [13] 0.038 | [14] 0.009 | [15] 0.139 | [16] 0.075 | [17] -0.042 | [18] 0.246

COPS3 isoform 2 (UniProt Q9UNS2)
inactive: [2] -0.098 | [4] -0.065 | [7] 0.17 | [19] 0.073 | [20] 0.039 | [10] 0.173 | [14] -0.217 | [18] -0.007

COL6A1 (UniProt P12109)
inactive: [14] -0.052

COL25A1 (UniProt Q9BXS0)
inactive: [5] -0.016 | [6] -0.087 | [8] 0.092 | [9] 0.177 | [10] 0.082 | [11] -0.082 | [12] -0.012 | [14] -0.024 | [17] 0.143 | [18] -0.125

CNRIP1 (UniProt Q96F85)
inactive: [1] -0.029 | [2] 0.204 | [3] -0.025 | [4] 0.012 | [5] 0.028 | [6] -0.118 | [7] -0.017 | [8] 0.113 | [9] 0.321 | [10] 0.045 | [11] 0.112 | [12] -0.009 | [13] -0.016 | [15] 0.064 | [16] 0.128 | [17] 0.182 | [18] -0.075

CNNM1 (UniProt Q9NRU3)
inactive: [1] -0.032 | [2] 0.027 | [3] 0.188 | [4] -0.055 | [7] -0.115 | [19] 0.048 | [20] 0.045 | [13] -0.012 | [14] 0.069 | [15] -0.142

COX7B (UniProt P24311)
inactive: [1] -0.024 | [2] 0.026 | [3] 0.009 | [4] -0.011 | [6] -0.003 | [7] 0.022 | [19] -0.085 | [20] 0.022 | [8] 0.025 | [10] -0.016 | [11] 0.014 | [12] -0.09 | [13] 0.008 | [14] -0.046 | [15] -0.144 | [16] 0.018 | [17] 0.039 | [18] 0.02

Reprinted at random: two records from the list.
COL6A1 (UniProt P12109)
inactive: [14] -0.052

COPS3 isoform 2 (UniProt Q9UNS2)
inactive: [2] -0.098 | [4] -0.065 | [7] 0.17 | [19] 0.073 | [20] 0.039 | [10] 0.173 | [14] -0.217 | [18] -0.007

Carrying on.

CNTROB isoform 2 (UniProt Q8N137)
inactive: [1] 0.16 | [3] 0.036 | [13] -0.166 | [15] 0.175

CPA4 (UniProt Q9UI42)
inactive: [1] -0.035 | [3] -0.074 | [5] 0.398 | [6] 0.019 | [8] -0.059 | [9] -0.087 | [10] -0.245 | [11] -0.099 | [12] 0.124 | [13] 0.184 | [16] 0.05 | [17] 0.074 | [18] -0.525

CORO7 (UniProt P57737)
inactive: [1] -0.001 | [2] 0.01 | [3] 0.291 | [4] -0.089 | [6] -0.023 | [7] -0.047 | [19] -0.07 | [20] 0.064 | [8] 0.091 | [11] -0.039 | [12] 0.06 | [13] -0.076 | [14] -0.202 | [15] 0.067 | [16] -0.229 | [17] 0.134

COMMD6 isoform 2 (UniProt Q7Z4G1)
inactive: [1] 0.031 | [3] -0.06 | [5] 0.163 | [6] 0.078 | [19] 0.121 | [20] 0.127 | [8] -0.019 | [9] 0.021 | [10] 0.003 | [11] 0.011 | [12] -0.087 | [13] 0.028 | [14] -0.104 | [15] 0.04 | [16] 0 | [17] 0.053 | [18] 0.215

CNEP1R1 isoform 2 (UniProt Q8N9A8)
inactive: [5] -0.029 | [9] -0.168 | [14] 0.1

CPEB3 (UniProt Q8NE35)
inactive: [1] -0.023 | [3] 0.002 | [6] 0.017 | [8] 0.082 | [11] -0.027 | [12] -0.141 | [13] 0.066 | [16] -0.075 | [17] 0.073

CNK3/IPCEF1 isoform 2 (UniProt G9CGD6)
inactive: [1] 0.065 | [2] -0.008 | [3] 0.038 | [4] -0.082 | [6] -0.051 | [7] 0.053 | [19] 0.014 | [20] -0.048 | [8] 0.105 | [11] 0.215 | [12] -0.138 | [13] -0.096 | [15] 0.075 | [17] 0

COQ8B (UniProt Q96D53)
inactive: [1] -0.143 | [3] -0.063 | [19] -0.272 | [20] 0.178 | [13] 0.151 | [14] 0.162 | [16] 0.01

CORO6 isoform 5 (UniProt Q6QEF8)
inactive: [5] 0.035 | [9] -0.003 | [10] -0.065 | [14] -0.101 | [16] 0.113 | [18] -0.037

CRACR2B (UniProt Q8N4Y2)
inactive: [1] 0.057 | [3] -0.11 | [13] -0.078 | [15] 0.215

COPS2 (UniProt P61201)
inactive: [19] -0.019 | [20] 0.026 | [10] 0.019 | [14] 0.127 | [15] -0.046 | [16] -0.035 | [18] -0.097

CPNE2 (UniProt Q96FN4)
inactive: [1] 0.023 | [3] 0.035 | [5] 0.013 | [6] 0 | [19] -0.027 | [20] 0.063 | [8] -0.018 | [9] -0.1 | [10] -0.003 | [11] -0.057 | [12] -0.153 | [13] 0.015 | [14] -0.055 | [15] -0.009 | [16] 0.032 | [17] 0.058 | [18] -0.029

CNNM2 (UniProt Q9H8M5)
inactive: [1] -0.109 | [2] -0.206 | [3] 0.038 | [4] 0.058 | [6] -0.106 | [7] -0.029 | [19] 0.045 | [20] 0.201 | [8] 0.098 | [10] 0.004 | [11] 0.31 | [13] 0.048 | [15] -0.031 | [16] -0.054 | [17] -0.157 | [18] -0.015
active: [12] 0.348

CPVL (UniProt Q9H3G5)
inactive: [1] -0.052 | [2] -0.074 | [3] -0.017 | [4] -0.082 | [5] 0.026 | [6] 0.038 | [7] -0.199 | [8] 0.03 | [9] 0.097 | [10] -0.028 | [11] -0.018 | [12] -0.073 | [13] -0.043 | [14] 0.177 | [15] 0 | [16] 0.119 | [17] 0.143 | [18] -0.009
